From publication PMC9561260
These are yes or no findings as the source states them, for the method shown. In cells and extracts the contact can be indirect. A yes stands for co-enrichment or nearness to the bait. Other partners may have been found. Sequences can lack the tags named with a protein. Each block holds one binder with its values, some of them ahead of it.

Target: T1, 2× HA-3× FLAG-Eya1 (UniProt P97767)
T1 sequence: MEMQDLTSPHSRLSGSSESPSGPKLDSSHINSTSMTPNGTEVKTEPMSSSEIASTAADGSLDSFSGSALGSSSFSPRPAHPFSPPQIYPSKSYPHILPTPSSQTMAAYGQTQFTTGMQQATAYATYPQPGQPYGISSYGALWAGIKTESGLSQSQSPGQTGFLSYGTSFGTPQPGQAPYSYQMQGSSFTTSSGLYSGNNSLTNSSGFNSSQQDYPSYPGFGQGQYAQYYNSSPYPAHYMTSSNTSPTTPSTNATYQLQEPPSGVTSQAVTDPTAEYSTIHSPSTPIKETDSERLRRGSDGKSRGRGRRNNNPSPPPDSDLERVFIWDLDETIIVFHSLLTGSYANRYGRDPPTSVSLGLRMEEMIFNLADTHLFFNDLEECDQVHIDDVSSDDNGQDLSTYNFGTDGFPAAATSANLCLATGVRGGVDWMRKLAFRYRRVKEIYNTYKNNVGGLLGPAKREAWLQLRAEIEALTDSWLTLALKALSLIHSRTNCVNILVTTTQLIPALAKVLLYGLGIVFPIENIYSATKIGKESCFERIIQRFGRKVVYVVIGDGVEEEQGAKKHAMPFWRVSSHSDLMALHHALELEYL
Assay: affinity purification with mass spectrometry; tandem purification of HF-Eya1 from lysate of stable HEK293 cells: anti-FLAG M2 beads, FLAG peptide elution, then anti-HA agarose; 50 mM Tris-HCl pH 7.5, 150 mM NaCl, 0.1% Nonidet P-40, 4°C; 12 bands (B1-B12) cut from a silver-stained gel

B2: PDS5A (sister chromatid cohesion protein) (protein, UniProt Q29RF7 1-1337)
chain: MDFTAQPKPATALCGVVSADGKIAYPPGVKEITDKITTDEMIKRLKMVVKTFMDMDQDSEDEKQQYLPLALHLASEFFLRNPNKDVRLLVACCLADIFRIYAPEAPYTSHDKLKDIFLFITRQLKGLEDTKSPQFNRYFYLLENLAWVKSYNICFELEDCNEIFIQLFRTLFSVINNSHNKKVQMHMLDLMSSIIMEGDGVTQELLDSILINLIPAHKNLNKQSFDLAKVLLKRTVQTIEACIANFFNQVLVLGRSSVSDLSEHVFDLIQELFAIDPHLLLSVMPQLEFKLKSNDGEERLAVVRLLAKLFGSKDSDLATQNRPLWQCFLGRFNDIHVPVRLESVKFASHCLMNHPDLAKDLTEYLKVRSHDPEEAIRHDVIVTIITAAKRDLALVNDQLLGFVRERTLDKRWRVRKEAMMGLAQLYKKYCLHGEAGKEAAEKVSWIKDKLLHIYYQNSIDDKLLVEKIFAQYLVPHNLETEERMKCLYYLYASLDPNAVKALNEMWKCQNMLRSHVRELLDLHKQPTSEANCSAMFGKLMTIAKNLPDPGKAQDFVKKFNQVLGDDEKLRSQLELLISPTCSCKQADICVREIARKLANPKQPTNPFLEMVKFLLERIAPVHIDSEAISALVKLMNKSIEGTADDEEEGVSPDTAIRSGLELLKVLSFTHPTSFHSAETYESLLQCLRMEDDKVAEAAIQIFRNTGHKIETDLPQIRSTLIPILHQKAKRGTPHQAKQAVHCIHAIFTNKEVQLAQIFEPLSRSLNADVPEQLITPLVSLGHISMLAPDQFASPMKSVVANFIVKDLLMNDRSTGEKNGKLWSPDEEVSPEVLAKVQAIKLLVRWLLGMKNNQSKSANSTLRLLSAMLVSEGDLTEQKRISKSDMSRLRLAAGSAIMKLAQEPCYHEIITPEQFQLCALVINDECYQVRQIFAQKLHKALVKLLLPLEYMAIFALCAKDPVKERRAHARQCLLKNISIRREYIKQNPMATEKLLSLLPEYVVPYMIHLLAHDPDFTRSQDVDQLRDIKECLWFMLEVLMTKNENNSHAFMKKMAENIKLTRDAQSPDESKTNEKLYTVCDVALCVINSKSALCNADSPKDPVLPMKFFTQPEKDFCNDKSYISEETRVLLLTGKPKPAGVLGAVNKPLSATGRKPYVRSTGTETGSNINVNSELNPSTGNRSREQSSEAAETGVSENEENPVRIISVTPVKNIDPVKNKEINSDQATQGNISSDRGKKRTVTAAGAENIQQKTDEKVDESGPPAPSKPRRGRRPKSESQGNATKNDDLNKPINKGRKRAAVGQESPGGLEAGNAKAPKLQDLAKKAAPAERQIDLQR
binding: binds

B3: CDYL (protein, UniProt Q9Y232 1-598)
chain: MTFQASHRSAWGKSRKKNWQYEGPTQKLFLKRNNVSAPDGPSDPSISVSSEQSGAQQPPALQVERIVDKRKNKKGKTEYLVRWKGYDSEDDTWEPEQHLVNCEEYIHDFNRRHTEKQKESTLTRTNRTSPNNARKQISRSTNSNFSKTSPKALVIGKDHESKNSQLFAASQKFRKNTAPSLSSRKNMDLAKSGIKILVPKSPVKSRTAVDGFQSESPEKLDPVEQGQEDTVAPEVAAEKPVGALLGPGAERARMGSRPRIHPLVPQVPGPVTAAMATGLAVNGKGTSPFMDALTANGTTNIQTSVTGVTASKRKFIDDRRDQPFDKRLRFSVRQTESAYRYRDIVVRKQDGFTHILLSTKSSENNSLNPEVMREVQSALSTAAADDSKLVLLSAVGSVFCCGLDFIYFIRRLTDDRKRESTKMAEAIRNFVNTFIQFKKPIIVAVNGPAIGLGASILPLCDVVWANEKAWFQTPYTTFGQSPDGCSTVMFPKIMGGASANEMLLSGRKLTAQEACGKGLVSQVFWPGTFTQEVMVRIKELASCNPVVLEESKALVRCNMKMELEQANERECEVLKKIWGSAQGMDSMLKYLQRKIDEF
binding: binds

B4: SCYL1 (protein, UniProt Q96KG9 1-808)
chain: MWFFARDPVRDFPFELIPEPPEGGLPGPWALHRGRKKATGSPVSIFVYDVKPGAEEQTQVAKAAFKRFKTLRHPNILAYIDGLETEKCLHVVTEAVTPLGIYLKARVEAGGLKELEISWGLHQIVKALSFLVNDCSLIHNNVCMAAVFVDRAGEWKLGGLDYMYSAQGNGGGPPRKGIPELEQYDPPELADSSGRVVREKWSADMWRLGCLIWEVFNGPLPRAAALRNPGKIPKTLVPHYCELVGANPKVRPNPARFLQNCRAPGGFMSNRFVETNLFLEEIQIKEPAEKQKFFQELSKSLDAFPEDFCRHKVLPQLLTAFEFGNAGAVVLTPLFKVGKFLSAEEYQQKIIPVVVKMFSSTDRAMRIRLLQQMEQFIQYLDEPTVNTQIFPHVVHGFLDTNPAIREQTVKSMLLLAPKLNEANLNVELMKHFARLQAKDEQGPIRCNTTVCLGKIGSYLSASTRHRVLTSAFSRATRDPFAPSRVAGVLGFAATHNLYSMNDCAQKILPVLCGLTVDPEKSVRDQAFKAIRSFLSKLESVSEDPTQLEEVEKDVHAASSPGMGGAAASWAGWAVTGVSSLTSKLIRSHPTTAPTETNIPQRPTPEGVPAPAPTPVPATPTTSGHWETQEEDKDTAEDSSTADRWDDEDWGSLEQEAESVLAQQDDWSTGGQVSRASQVSNSDHKSSKSPESDWSSWEAEGSWEQGWQEPSSQEPPPDGTRLASEYNWGGPESSDKGDPFATLSARPSTQPRPDSWGEDNWEGLETDSRQVKAELARKKREERRREMEAKRAERKVAKGPMKLGARKLD
binding: binds

The next lines start with the values.

binding: binds
B1: WAPAL (regulator of sister chromatid cohesion) (protein, UniProt B2RTX8 1-1184)
chain: MTSRFGKTYSRKGGNGSSKFDEVFSNKRTTLSTKWGETTFMAKLGQKRPNFKPDIQEIPKKPKVEEESTGDPFGFDSDDESLPVSSKNLAQVKCSSYSESSEAAQLEEVTSVLEANSKISHVVVEDTVVSDKCFPLEDTLLGKEKSTNRIVEDDASISSCNKLITSDKVENFHEEHEKNSHHIHKNADDSTKKPNAETTVASEIKETNDTWNSQFGKRPESPSEISPIKGSVRTGLFEWDNDFEDIRSEDCILSLDSDPLLEMKDDDFKNRLENLNEAIEEDIVQSVLRPTNCRTYCRANKTKSSQGASNFDKLMDGTSQALAKANSESSKDGLNQAKKGGVSCGTSFRGTVGRTRDYTVLHPSCLSVCNVTIQDTMERSMDEFTASTPADLGEAGRLRKKADIATSKTTTRFRPSNTKSKKDVKLEFFGFEDHETGGDEGGSGSSNYKIKYFGFDDLSESEDDEDDDCQVERKTSKKRTKTAPSPSLQPPPESNDNSQDSQSGTNNAEDLPGVPESVKKPINKQGDKSKENTRKIFSGPKRSPTKAVYNARHWNHPDSEELPGPPVVKPQSVTVRLSSKEPNQKDDGVFKAPAPPSKVIKTVTIPTQPYQDIVTALKCRREDKELYTVVQHVKHFNDVVEFGENQEFTDDIEYLLSGLKSTQPLNTRCLSVISLATKCAMPSFRMHLRAHGMVAMVFKTLDDSQHHQNLSLCTAALMYILSRDRLNMDLDRASLDLMIRLLELEQDASSAKLLNEKDMNKIKEKIRRLCETVHNKHLDLENITTGHLAMETLLSLTSKRAGDWFKEELRLLGGLDHIVDKVKECVDHLSRDEDEEKLVASLWGAERCLRVLESVTVHNPENQSYLIAYKDSQLIVSSAKALQHCEELIQQYNRAEDSICLADSKPLPHQNVTNHVGKAVEDCMRAIIGVLLNLTNDNEWGSTKTGEQDGLIGTALNCVLQVPKYLPQEQRFDIRVLGLGLLINLVEYSARNRHCLVNMETSCSFDSSICSGEGDDSLRIGGQVHAVQALVQLFLERERAAQLAESKTDELIKDAPTTQHDKSGEWQETSGEIQWVSTEKTDGTEEKHKKEEEDEELDLNKALQHAGKHMEDCIVASYTALLLGCLCQESPINVTTVREYLPEGDFSIMTEMLKKFLSFMNLTCAVGTTGQKSISRVIEYLEHC

binding: binds
B5: MAGED1 (inhibits cell cycle and facilitates NGFR-mediated apoptosis) (protein, UniProt Q9Y5V3-2 1-834)
chain: MAQKMDCGAGLLGFQNPDACRAVCHPLPQPPASTLPLSAFPTLCDPPYSQLRDPPAVLSCYCTPLGASPAPAEASVEDSALLMQTLMEAIQISEAPPTNQATAAASPQSSQPPTANEMADIQVSAAAARPKSAFKVQNATTKGPNGVYDFSQAHNAKDVPNTQPKAAFKSQNATPKGPNAAYDFSQAATTGELAANKSEMAFKAQNATTKVGPNATYNFSQSLNANDLANSRPKTPFKAWNDTTKAPTADTQTQNVNQAKMATSQADIETDPGISEPDGATAQTSADGSQAQNLESRTIIRGKRTRKINNLNVEENSSGDQRRAPLAAGTWRSAPVPVTTQNPPGAPPNVLWQTPLAWQNPSGWQNQTARQTPPARQSPPARQTPPAWQNPVAWQNPVIWPNPVIWQNPVIWPNPIVWPGPVVWPNPLAWQNPPGWQTPPGWQTPPGWQGPPDWQGPPDWPLPPDWPLPPDWPLPTDWPLPPDWIPADWPIPPDWQNLRPSPNLRPSPNSRASQNPGAAQPRDVALLQERANKLVKYLMLKDYTKVPIKRSEMLRDIIREYTDVYPEIIERACFVLEKKFGIQLKEIDKEEHLYILISTPESLAGILGTTKDTPKLGLLLVILGVIFMNGNRASEAVLWEALRKMGLRPGVRHPLLGDLRKLLTYEFVKQKYLDYRRVPNSNPPEYEFLWGLRSYHETSKMKVLRFIAEVQKRDPRDWTAQFMEAADEALDALDAAAAEAEARAEARTRMGIGDEAVSGPWSWDDIEFELLTWDEEGDFGDPWSRIPFTFWARYHQNARSRFPQTFAGPIIGPGGTASANFAANFGAIGFFWVE

binding: binds
B6: TAB1 (proliferation and apoptosis) (protein, UniProt Q15750 1-504)
chain: MAAQRRSLLQSEQQPSWTDDLPLCHLSGVGSASNRSYSADGKGTESHPPEDSWLKFRSENNCFLYGVFNGYDGNRVTNFVAQRLSAELLLGQLNAEHAEADVRRVLLQAFDVVERSFLESIDDALAEKASLQSQLPEGVPQHQLPPQYQKILERLKTLEREISGGAMAVVAVLLNNKLYVANVGTNRALLCKSTVDGLQVTQLNVDHTTENEDELFRLSQLGLDAGKIKQVGIICGQESTRRIGDYKVKYGYTDIDLLSAAKSKPIIAEPEIHGAQPLDGVTGFLVLMSEGLYKALEAAHGPGQANQEIAAMIDTEFAKQTSLDAVAQAVVDRVKRIHSDTFASGGERARFCPRHEDMTLLVRNFGYPLGEMSQPTPSPAPAAGGRVYPVSVPYSSAQSTSKTSVTLSLVMPSQGQMVNGAHSASTLDEATPTLTNQSPTLTLQSTNTHTQSSSSSSDGGLFRSRPAHSLPPGEDGRVEPYVDFAEFYRLWSVDHGEQSVVTAP
